The list shows a part of the results.
Legend:
Assay in all cases: log2 fold change, soluble protein after heating vs DMSO (PISA); higher = thermal stabilisation; K562 cells, 10 uM, 30 min; active = over 0.2 and 3.5 SD of the protein, either way, in both replicates (recomputed)
[1] = compound: C1=CC=C(C=C1)[C@H](COC2=CC3=C(C=C2)NC(=O)N3)NC(=O)C4=CC=CN(C4=O)CC5=CC(=C(C=C5)F)F
Method in brief: (§1)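 Aliquots of K562 cells (2×10^6 cells/mL) treated with 10 μM compound for 30 min were heated for 3 min over 48°C-58°C. After pooling and extraction in PBS with 0.5% NP-40 at 4°C, soluble protein from a 21,000xg, 90 min spin was quantified by TMTpro 16plex LC-MS/MS with channel sums equalised. Thermal stability is expressed against control samples, from duplicates, as a log2 fold change.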

Protein sequences, listed by entry. Tags and fused reporters are not part of them. Lines headed by an entry give the natural chain unless they say otherwise; changes in a name come on top.
UniProt Q6P587: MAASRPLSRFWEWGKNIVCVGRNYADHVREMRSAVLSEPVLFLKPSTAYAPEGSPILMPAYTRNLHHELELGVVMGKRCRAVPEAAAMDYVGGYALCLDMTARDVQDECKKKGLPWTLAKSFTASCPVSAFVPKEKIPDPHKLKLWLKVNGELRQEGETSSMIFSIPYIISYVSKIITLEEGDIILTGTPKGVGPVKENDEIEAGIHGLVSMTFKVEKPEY
UniProt Q9NQT5, whole entry, looked up: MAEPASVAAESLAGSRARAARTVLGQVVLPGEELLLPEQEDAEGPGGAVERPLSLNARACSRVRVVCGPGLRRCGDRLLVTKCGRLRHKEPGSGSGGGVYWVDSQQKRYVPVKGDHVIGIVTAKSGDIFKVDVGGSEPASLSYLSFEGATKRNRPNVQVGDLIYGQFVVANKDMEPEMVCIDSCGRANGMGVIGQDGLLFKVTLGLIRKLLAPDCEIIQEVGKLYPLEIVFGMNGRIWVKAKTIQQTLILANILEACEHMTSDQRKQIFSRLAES
UniProt P16930: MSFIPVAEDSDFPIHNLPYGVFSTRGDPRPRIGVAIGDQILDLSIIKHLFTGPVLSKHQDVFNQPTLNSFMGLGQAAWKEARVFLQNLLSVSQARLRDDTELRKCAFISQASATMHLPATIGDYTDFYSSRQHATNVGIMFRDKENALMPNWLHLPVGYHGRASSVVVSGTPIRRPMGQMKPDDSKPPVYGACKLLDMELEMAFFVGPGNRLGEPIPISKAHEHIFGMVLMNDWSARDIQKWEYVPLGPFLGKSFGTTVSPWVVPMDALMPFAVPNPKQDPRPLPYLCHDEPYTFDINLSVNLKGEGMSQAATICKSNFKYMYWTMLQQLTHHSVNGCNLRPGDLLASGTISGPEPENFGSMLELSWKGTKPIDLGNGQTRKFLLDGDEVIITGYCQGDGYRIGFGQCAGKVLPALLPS
UniProt Q5BKY9: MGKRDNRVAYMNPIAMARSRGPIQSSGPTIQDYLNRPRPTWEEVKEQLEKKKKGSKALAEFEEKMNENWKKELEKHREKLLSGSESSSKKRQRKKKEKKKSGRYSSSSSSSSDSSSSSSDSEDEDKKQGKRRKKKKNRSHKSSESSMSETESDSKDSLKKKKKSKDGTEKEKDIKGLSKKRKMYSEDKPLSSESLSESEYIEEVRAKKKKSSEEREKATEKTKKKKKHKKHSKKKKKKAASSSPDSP
UniProt Q9Y6I3: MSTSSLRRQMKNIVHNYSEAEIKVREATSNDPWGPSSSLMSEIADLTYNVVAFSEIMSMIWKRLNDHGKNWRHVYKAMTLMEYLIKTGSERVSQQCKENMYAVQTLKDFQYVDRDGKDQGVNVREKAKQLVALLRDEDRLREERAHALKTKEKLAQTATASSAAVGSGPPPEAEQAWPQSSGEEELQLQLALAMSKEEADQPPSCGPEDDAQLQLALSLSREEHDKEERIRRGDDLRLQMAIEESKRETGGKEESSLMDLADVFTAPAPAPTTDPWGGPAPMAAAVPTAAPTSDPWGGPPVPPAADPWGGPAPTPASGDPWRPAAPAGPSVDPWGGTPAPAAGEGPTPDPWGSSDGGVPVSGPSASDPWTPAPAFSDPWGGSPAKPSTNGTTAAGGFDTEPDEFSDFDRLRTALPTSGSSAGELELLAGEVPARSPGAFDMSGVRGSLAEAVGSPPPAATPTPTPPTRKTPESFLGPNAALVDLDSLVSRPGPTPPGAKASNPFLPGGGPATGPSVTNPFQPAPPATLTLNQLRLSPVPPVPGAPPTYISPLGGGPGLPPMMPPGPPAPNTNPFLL
UniProt Q9BPY3: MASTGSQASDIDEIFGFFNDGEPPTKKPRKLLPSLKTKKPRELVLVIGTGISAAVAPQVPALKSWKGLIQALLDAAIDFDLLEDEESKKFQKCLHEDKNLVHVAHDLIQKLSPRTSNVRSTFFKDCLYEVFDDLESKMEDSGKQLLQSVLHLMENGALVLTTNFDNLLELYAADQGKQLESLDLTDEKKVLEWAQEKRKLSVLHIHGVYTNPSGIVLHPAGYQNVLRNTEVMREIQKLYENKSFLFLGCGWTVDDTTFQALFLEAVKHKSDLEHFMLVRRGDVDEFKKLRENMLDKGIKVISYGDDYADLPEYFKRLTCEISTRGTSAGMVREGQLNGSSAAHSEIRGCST
UniProt Q9NV70: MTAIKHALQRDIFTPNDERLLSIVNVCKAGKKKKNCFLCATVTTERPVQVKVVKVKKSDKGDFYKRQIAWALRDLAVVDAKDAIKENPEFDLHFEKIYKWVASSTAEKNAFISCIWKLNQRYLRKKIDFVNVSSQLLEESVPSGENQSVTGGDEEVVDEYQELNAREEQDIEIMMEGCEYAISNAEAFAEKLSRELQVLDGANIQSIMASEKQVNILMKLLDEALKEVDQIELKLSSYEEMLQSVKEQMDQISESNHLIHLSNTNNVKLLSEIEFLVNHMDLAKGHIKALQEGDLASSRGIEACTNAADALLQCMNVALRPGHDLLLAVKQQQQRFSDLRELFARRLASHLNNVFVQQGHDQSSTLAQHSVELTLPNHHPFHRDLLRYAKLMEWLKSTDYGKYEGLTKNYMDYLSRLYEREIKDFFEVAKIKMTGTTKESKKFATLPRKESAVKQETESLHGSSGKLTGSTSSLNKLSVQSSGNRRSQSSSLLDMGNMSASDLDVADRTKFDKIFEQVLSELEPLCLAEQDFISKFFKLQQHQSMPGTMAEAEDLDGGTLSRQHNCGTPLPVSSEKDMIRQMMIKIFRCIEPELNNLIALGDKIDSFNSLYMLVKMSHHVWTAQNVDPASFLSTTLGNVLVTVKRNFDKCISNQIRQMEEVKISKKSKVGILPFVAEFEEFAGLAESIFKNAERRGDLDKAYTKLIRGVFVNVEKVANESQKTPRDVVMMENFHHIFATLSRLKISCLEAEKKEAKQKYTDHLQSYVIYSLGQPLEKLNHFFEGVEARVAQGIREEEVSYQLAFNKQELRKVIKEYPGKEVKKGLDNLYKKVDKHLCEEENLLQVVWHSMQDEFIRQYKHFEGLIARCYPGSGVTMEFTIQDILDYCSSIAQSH
UniProt Q96DF8: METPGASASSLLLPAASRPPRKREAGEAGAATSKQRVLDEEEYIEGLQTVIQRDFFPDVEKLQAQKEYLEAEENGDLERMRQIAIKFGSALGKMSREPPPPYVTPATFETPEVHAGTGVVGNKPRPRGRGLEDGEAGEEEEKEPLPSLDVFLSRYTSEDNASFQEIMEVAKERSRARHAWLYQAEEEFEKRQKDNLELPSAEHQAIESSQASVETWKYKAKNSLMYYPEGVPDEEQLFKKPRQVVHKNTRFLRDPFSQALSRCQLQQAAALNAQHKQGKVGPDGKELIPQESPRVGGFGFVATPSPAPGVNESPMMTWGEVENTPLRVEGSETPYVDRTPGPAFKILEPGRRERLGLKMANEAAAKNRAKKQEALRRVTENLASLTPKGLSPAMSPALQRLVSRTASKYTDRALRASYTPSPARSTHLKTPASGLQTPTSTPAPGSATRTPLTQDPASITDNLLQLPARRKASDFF
UniProt Q01780: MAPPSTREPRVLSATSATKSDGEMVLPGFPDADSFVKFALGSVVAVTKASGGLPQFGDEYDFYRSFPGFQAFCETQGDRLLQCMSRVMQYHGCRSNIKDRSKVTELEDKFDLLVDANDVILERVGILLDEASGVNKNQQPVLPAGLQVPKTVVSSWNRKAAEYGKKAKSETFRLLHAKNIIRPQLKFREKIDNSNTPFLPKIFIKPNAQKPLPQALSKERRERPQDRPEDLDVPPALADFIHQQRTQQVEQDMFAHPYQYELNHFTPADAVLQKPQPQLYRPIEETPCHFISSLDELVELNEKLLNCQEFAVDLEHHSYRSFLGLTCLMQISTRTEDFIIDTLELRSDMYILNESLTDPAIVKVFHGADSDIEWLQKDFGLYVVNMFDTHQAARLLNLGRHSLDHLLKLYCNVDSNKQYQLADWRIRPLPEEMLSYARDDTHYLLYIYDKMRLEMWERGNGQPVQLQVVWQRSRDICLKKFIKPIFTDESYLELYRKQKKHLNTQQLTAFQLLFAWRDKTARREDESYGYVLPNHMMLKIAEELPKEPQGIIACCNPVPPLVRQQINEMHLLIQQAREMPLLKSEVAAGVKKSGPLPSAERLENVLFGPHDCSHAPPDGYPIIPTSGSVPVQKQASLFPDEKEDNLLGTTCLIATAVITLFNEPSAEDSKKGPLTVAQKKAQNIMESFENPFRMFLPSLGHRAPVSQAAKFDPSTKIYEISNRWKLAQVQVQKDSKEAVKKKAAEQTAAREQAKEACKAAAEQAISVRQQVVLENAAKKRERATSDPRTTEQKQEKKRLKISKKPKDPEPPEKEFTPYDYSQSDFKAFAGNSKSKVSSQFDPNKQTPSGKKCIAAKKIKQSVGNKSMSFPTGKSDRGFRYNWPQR
UniProt Q5T6L9: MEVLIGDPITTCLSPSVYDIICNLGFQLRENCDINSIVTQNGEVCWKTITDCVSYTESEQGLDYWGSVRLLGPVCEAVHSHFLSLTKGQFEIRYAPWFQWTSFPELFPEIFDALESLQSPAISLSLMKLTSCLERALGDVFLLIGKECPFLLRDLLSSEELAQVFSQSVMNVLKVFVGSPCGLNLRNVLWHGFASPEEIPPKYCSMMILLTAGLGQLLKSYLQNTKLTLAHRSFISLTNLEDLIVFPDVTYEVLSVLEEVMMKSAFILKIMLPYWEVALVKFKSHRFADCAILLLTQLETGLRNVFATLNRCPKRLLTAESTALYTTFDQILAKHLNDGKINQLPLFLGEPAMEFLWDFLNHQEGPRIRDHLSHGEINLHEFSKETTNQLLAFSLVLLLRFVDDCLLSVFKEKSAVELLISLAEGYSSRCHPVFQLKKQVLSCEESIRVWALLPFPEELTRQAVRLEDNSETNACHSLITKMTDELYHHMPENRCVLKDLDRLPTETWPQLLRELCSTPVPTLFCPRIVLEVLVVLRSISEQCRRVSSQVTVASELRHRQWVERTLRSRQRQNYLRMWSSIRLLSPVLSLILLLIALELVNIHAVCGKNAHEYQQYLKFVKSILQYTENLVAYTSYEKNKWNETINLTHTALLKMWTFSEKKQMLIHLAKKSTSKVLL
UniProt Q5VUB5: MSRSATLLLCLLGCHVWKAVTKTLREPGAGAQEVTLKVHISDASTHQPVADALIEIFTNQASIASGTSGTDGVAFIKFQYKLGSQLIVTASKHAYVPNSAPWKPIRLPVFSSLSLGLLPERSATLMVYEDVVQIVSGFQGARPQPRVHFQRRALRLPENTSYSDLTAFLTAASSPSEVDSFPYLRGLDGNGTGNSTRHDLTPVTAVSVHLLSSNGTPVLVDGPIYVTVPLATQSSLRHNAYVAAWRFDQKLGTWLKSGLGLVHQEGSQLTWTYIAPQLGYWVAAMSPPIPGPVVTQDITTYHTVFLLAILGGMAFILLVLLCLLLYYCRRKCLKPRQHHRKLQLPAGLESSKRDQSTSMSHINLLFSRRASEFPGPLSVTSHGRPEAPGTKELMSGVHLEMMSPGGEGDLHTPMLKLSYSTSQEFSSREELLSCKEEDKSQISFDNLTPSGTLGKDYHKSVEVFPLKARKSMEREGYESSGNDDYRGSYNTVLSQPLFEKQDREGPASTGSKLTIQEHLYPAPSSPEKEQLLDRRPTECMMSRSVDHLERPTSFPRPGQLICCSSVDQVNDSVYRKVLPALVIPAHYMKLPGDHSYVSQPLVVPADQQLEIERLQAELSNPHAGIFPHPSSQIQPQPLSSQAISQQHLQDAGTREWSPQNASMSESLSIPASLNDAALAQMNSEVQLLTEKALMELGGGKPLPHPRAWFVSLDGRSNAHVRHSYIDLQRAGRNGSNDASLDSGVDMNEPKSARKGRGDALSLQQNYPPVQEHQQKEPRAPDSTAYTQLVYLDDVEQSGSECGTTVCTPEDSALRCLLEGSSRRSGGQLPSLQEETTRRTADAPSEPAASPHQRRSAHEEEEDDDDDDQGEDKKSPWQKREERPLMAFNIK
UniProt Q9NVH0: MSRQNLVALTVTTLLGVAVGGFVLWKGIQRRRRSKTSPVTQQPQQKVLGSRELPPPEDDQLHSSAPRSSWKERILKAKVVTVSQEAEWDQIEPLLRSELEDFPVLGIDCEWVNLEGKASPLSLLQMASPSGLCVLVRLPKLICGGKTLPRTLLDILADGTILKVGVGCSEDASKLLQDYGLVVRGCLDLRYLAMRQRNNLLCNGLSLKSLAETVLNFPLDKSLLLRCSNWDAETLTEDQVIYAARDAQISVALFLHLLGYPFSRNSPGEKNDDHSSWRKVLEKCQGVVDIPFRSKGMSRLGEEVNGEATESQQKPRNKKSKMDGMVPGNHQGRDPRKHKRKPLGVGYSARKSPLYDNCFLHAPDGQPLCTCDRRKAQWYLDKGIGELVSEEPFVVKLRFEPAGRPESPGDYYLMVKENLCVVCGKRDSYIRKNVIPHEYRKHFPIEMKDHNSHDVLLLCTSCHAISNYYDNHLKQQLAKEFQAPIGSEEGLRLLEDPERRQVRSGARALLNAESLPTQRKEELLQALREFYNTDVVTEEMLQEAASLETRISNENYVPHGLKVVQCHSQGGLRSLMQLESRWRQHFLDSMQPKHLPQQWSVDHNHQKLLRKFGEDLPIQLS

[2] = compound: CC1=C(SC2=C1C(=N[C@H](C3=NN=C(N32)C)CC(=O)N)C4=CC=C(C=C4)Cl)C
Method in brief: as §1

[3] = compound: CC1=C2C(=CC=C1)N=C(N(C2=O)C3=CC=CC=C3C)CN4C=NC5=C(N=CN=C54)N
Method in brief: as §1

[4] = compound: Cc1sc2c(c1C)C(c1ccc(Cl)cc1)=N[C@@H](CC(=O)OC(C)(C)C)c1nnc(C)n1-2
Method in brief: as §1

[5] = compound: c1ccc([C@@H]2C[C@H]2NC2CCNCC2)cc1
Method in brief: as §1

Measured: log2 fold change

FAHD1 (UniProt Q6P587)
inactive: [1] 0.019 | [2] -0.004 | [3] 0.009 | [4] 0.002 | [5] 0.013

EXOSC3 (UniProt Q9NQT5)
inactive: [1] -0.02 | [2] -0.041 | [3] 0.01 | [4] -0.002 | [5] -0.022

ERAP1 isoform 2 (UniProt Q9NZ08)
inactive: [1] 0.052 | [2] -0.026 | [3] 0.011 | [4] -0.037 | [5] -0.012

F11R (UniProt Q9Y624)
inactive: [1] 0.006 | [2] -0.004 | [3] 0.014 | [4] 0.002 | [5] -0.018

FAH (UniProt P16930)
inactive: [1] 0.012 | [2] 0.014 | [3] 0.046 | [4] -0.021 | [5] -0.023

FAM133B (UniProt Q5BKY9)
inactive: [1] 0.02 | [2] 0.027 | [3] 0.008 | [4] 0.03 | [5] 0.061

ERI3 (UniProt O43414)
inactive: [1] -0.099 | [2] 0.025 | [3] 0.06 | [4] -0.023 | [5] 0.008

EPN1 (UniProt Q9Y6I3)
inactive: [1] -0.039 | [2] 0.067 | [3] -0.014 | [4] -0.015 | [5] -0.029

ERCC2 (UniProt P18074)
inactive: [1] 0 | [2] -0.025 | [3] -0.044 | [4] -0.104 | [5] 0.05

EPB41L2 (UniProt O43491)
inactive: [1] 0.011 | [2] 0.059 | [3] 0.052 | [4] -0.007 | [5] 0

ETFDH (UniProt Q16134)
inactive: [1] -0.034 | [2] 0.044 | [3] 0.074 | [4] -0.056 | [5] -0.028

FAM193B (UniProt Q96PV7)
inactive: [1] -0.115 | [2] 0.011 | [3] -0.103 | [4] 0.273 | [5] -0.115

EZR (UniProt P15311)
inactive: [1] -0.023 | [2] 0.05 | [3] 0.017 | [4] -0.011 | [5] -0.025

EPN2 (UniProt O95208)
inactive: [1] 0.012 | [2] 0.03 | [3] 0.007 | [4] 0.024 | [5] 0.102

FADS1, A0A0A0MR51
inactive: [1] -0.051 | [2] 0.026 | [3] 0.026 | [4] -0.005 | [5] -0.038

FAM160B1 (UniProt Q5W0V3)
inactive: [1] -0.005 | [2] 0.026 | [3] -0.01 | [4] -0.022 | [5] -0.041

Random excerpt: 2 entries already listed.
EPN2 (UniProt O95208)
inactive: [1] 0.012 | [2] 0.03 | [3] 0.007 | [4] 0.024 | [5] 0.102

FAH (UniProt P16930)
inactive: [1] 0.012 | [2] 0.014 | [3] 0.046 | [4] -0.021 | [5] -0.023

Continued:

FAM122B isoform 3 (UniProt Q7Z309)
inactive: [1] 0.001 | [2] 0.081 | [3] 0.107 | [4] 0.03 | [5] -0.01

EXOC4 (UniProt Q96A65)
inactive: [1] -0.05 | [2] 0.052 | [3] 0.015 | [4] 0.081 | [5] -0.049

FAM118B (UniProt Q9BPY3)
inactive: [1] -0.276 | [2] -0.01 | [3] 0.208 | [4] -0.019 | [5] -0.009

ERGIC2 (UniProt Q96RQ1)
inactive: [1] -0.027 | [2] 0.045 | [3] 0.098 | [4] -0.031 | [5] 0.024

ESPL1 (UniProt Q14674)
inactive: [1] -0.214 | [2] 0.101 | [3] -0.055 | [5] 0.038

EVC2 (UniProt Q86UK5)
inactive: [1] -0.064 | [2] -0.044 | [3] -0.141 | [4] 0.021 | [5] 0.081

EXOSC7 (UniProt Q15024)
inactive: [1] 0.051 | [2] -0.012 | [3] 0.018 | [4] 0.013 | [5] 0.053

EWSR1 (UniProt H7BY36)
inactive: [1] -0.207 | [2] 0.043 | [3] 0.102 | [5] 0.151

ESRRB isoform 1 (UniProt O95718)
inactive: [1] -0.102 | [2] 0.08 | [3] 0.03 | [5] 0.145

EXOSC4 (UniProt Q9NPD3)
inactive: [1] 0.017 | [2] -0.032 | [3] -0.072 | [4] -0.025 | [5] 0.027

EXOC1 (UniProt Q9NV70)
inactive: [1] -0.095 | [2] 0.021 | [3] 0.121 | [4] 0.027 | [5] -0.075

ESS2 (UniProt Q96DF8)
inactive: [1] 0.04 | [2] -0.06 | [3] -0.096 | [4] 0.018 | [5] 0.075

EXOSC10 (UniProt Q01780)
inactive: [1] 0.162 | [2] 0.184 | [3] 0.284 | [4] 0.03 | [5] -0.041

FAM118A (UniProt Q9NWS6)
inactive: [1] -0.079 | [2] 0.05 | [3] -0.102 | [4] -0.021 | [5] 0.003

ESYT2 (UniProt H7BXI1)
inactive: [1] -0.022 | [3] -0.274

ERMARD (UniProt Q5T6L9)
inactive: [2] -0.345 | [5] -0.064

FAM171A1 (UniProt Q5VUB5)
inactive: [3] 0.151

EXD2 (UniProt Q9NVH0)
inactive: [2] -0.018 | [5] 0.027

FAHD2B (UniProt Q6P2I3)
inactive: [1] 0.077 | [2] -0.001 | [5] 0.051

F10 (UniProt P00742)
inactive: [1] -0.014 | [3] -0.148 | [4] -0.051

3 successive entries from above:
FAM171A1 (UniProt Q5VUB5)
inactive: [3] 0.151

EXD2 (UniProt Q9NVH0)
inactive: [2] -0.018 | [5] 0.027

FAHD2B (UniProt Q6P2I3)
inactive: [1] 0.077 | [2] -0.001 | [5] 0.051

— the supplement of paper PMC10849652
